Structures can show the parent of a compound that is named as a salt. At least one structure is not confirmed: it was looked up by name or label, or the drawing left a doubt.
Legend:
PDE4A probes = experiment: Redistribution of the PDE4A probes (summary); format: cell-based; settings: compound alone
PDE4 = settings: literature values quoted in Example 5 (Saldou 1998; Ahluwalia 1982; Rubin 1991); read-out: IC50 against PDE4; cited from earlier work
HSPDE4A4-EGFP = biological target: T1, HSPDE4A4-EGFP (Homo sapiens, UniProt P27815); experiment: Spot formation in CHO cells transfected with HSPDE4A4-EGFP; format: cell-based; settings: observed up to 24 hours
T1 construct: expressed in transfected cells
Procedure: Chinese hamster ovary cells (CHO), are transfected with the plasmids described in Example 1 above using the transfection agent FuGENE™ 6 (Boehringer Mannheim Corp, USA) according to the method recommended by the suppliers. Stable transfectants are selected using 1 mg/ml G418 sulphate (Calbiochem) in the growth medium (HAM's F12 nutrient mix with Glutamax-1, 10% foetal bovine serum (FBS), 100 μg penicillin-streptomycin mixture ml^−1 (GibcoBRL, supplied by Life Technologies, Denmark). Cell are cultured at 37° C. in 100% humidity and conditions of normal atmospheric gases supplemented with 5% CO2.
For fluorescence microscopy, cells are allowed to adhere to Lab-Tek chambered coverglasses (Nalge Nunc International, Naperville USA) for at least 24 hours and are then cultured to about 80% confluence. Cells can also be grown in plastic 96-well plates (Polyfiltronics Packard 96-View Plate or Costar Black Plate, clear bottom; both types tissue culture treated) for imaging purposes. […] This medium has low autofluorescence enabling fluorescence microscopy of cells straight from the incubator. […]
Changes in cellular distribution of a transfected probe can be imaged and quantified in an automated fashion. […] Fluorescence illumination comes from a 100 W HBO lamp. […]

The chains behind the UniProt entries cited, without tags or fusion partners. Where a name states a change or a piece, a line headed by the entry shows the natural chain unless it says otherwise.
UniProt P27815: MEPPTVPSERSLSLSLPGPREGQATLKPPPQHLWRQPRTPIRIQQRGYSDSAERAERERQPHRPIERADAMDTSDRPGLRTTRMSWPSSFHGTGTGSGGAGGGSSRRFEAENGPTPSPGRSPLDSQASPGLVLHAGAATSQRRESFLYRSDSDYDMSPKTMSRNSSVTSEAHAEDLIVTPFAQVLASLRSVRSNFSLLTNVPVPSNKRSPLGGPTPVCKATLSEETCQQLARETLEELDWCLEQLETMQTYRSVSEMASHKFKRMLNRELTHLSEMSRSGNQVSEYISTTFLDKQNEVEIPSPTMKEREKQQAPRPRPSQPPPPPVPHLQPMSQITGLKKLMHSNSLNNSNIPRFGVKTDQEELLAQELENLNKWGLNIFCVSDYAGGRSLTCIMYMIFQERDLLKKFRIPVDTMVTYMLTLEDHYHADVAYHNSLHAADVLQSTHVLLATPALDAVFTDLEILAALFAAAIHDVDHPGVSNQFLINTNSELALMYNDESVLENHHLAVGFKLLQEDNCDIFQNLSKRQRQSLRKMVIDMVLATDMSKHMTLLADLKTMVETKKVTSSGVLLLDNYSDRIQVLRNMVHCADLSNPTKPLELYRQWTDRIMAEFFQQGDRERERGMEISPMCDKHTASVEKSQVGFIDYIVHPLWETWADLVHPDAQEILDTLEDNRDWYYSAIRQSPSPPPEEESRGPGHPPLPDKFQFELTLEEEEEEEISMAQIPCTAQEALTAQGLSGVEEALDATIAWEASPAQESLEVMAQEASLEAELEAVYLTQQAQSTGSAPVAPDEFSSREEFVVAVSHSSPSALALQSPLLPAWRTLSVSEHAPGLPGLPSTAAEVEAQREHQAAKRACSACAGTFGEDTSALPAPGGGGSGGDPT

CCOC(=O)c1cnc2c(cnn2CC)c1NN=C(C)C [etazolate, 1-ethyl-4-[(1-methylethylidene)hydrazino]-1H-pyrazolo[3,4-b]pyridine-5-carboxylic acid ethyl ester, HCl]
redistribution of the PDE4A probes (PDE4A probes): no redistribution | IC50 (PDE4): 2000 nM | formation of spots, compound alone (in words) (HSPDE4A4-EGFP): Neither compound causes formation of spots
